Laboratory results reported in PubChem BioAssay AID2685 (National Center for Advancing Translational Sciences (NCATS), 2010).
Some of the results follow. Shown are side measurements of this screen, not its main read-out; they come without a call. Most of these compounds were active or inconclusive in the main read-out, so they are no random draw. The note in brackets gives the kind of curve behind each potency; many fits are weak.

Assay: qHTS Assay for Lipid Storage Modulators in Drosophila S3 Cells;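 for cell number change: cells counted by Cell Tracker Red CMTPX staining in the red channel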
Details: BODIPY lipid droplet fluorescence, 18-24 h; for cell number change: measured here: cell count max response, cells fed with added oleic acid
How it was run: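 Laser-scanning cytometry quantifies lipid droplet accumulation (500–530 nm total intensity; droplet/cell object ratio) in oleic acid-fed (400 uM added) Drosophila S3 cells treated with a concentration series. 20 uM Triacsin C defined 100% inhibition.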

[1] = measured here: lipid fluorescence (Fed channel) AC50, cells fed with added oleic acid
[2] = measured here: cell number channel AC50, cells fed with added oleic acid

SMILES: COC(=O)c1nnn(-c2nonc2N)c1COc1ccc(C=O)cc1OC
- cell number change: 0.0563%
- AC50 [1]: 0.164 µM [rising, full curve, poor fit]

SMILES: COc1ccc(N2C(=O)CSC(c3ccccc3)C2=O)cc1 (stereo not drawn)
- cell number change: -15.1%
- AC50 [1]: 0.00461 µM [falling, full curve, poor fit]

SMILES: C=CCn1c(C(O)c2ccccc2)nc2ccccc21 (stereo not drawn)
- cell number change: 4.38%
- AC50 [1]: 4.11 µM [rising, full curve]

SMILES: CCOc1ccc(NC(=O)CCN2CCN(S(=O)(=O)c3cc(Cl)ccc3OC)CC2)cc1
- AC50 [1]: 0.58 µM [rising, single point]

SMILES: O=C(CSc1ncnc2c1oc1ccccc12)Nc1nc2ccccc2s1
- cell number change: -54%

SMILES: COc1ccc(C(=S)N2CCOCC2)cc1OC(=O)c1ccc([N+](=O)[O-])cc1[N+](=O)[O-]
- cell number change: 12.8%
- AC50 [1]: 29.1 µM [rising, single point]

SMILES: Cc1ccc(S(=O)(=O)N2CCCCC2)cc1C(=O)NC1CCCCC1
- cell number change: 14.3%
- AC50 [1]: 18.4 µM [rising, single point]

SMILES: Nc1nc(NCC2CCCO2)nc(NCC2CCCO2)c1[N+](=O)[O-] (stereo not drawn)
- cell number change: 3.31%
- AC50 [1]: 29.1 µM [rising, single point]

SMILES: O=S(=O)(NCc1ccco1)c1cccc(S(=O)(=O)N2CCOCC2)c1
- cell number change: 9.11%
- AC50 [1]: 4.11 µM [falling, single point]

SMILES: CN(C(=O)c1ccccc1OCc1ccc(F)cc1)c1c(N)n(Cc2ccccc2)c(=O)[nH]c1=O
- cell number change: 172%
- AC50 [2]: 18.4 µM [rising, partial curve]
- AC50 [1]: 5.17 µM [rising, partial curve]

SMILES: CCOC(=O)c1sc(=NC(=O)C2CC2)n(C)c1C
- cell number change: 10.3%
- AC50 [2]: 2.59 µM [rising, single point]

SMILES: CCN(CC(=O)Nc1ccccc1C(F)(F)F)C(=O)CN1C(=O)NC2(CCCC2)C1=O
- cell number change: -13.7%

SMILES: O=C(CN1C(=O)c2ccccc2S1(=O)=O)NCc1ccco1
- cell number change: -2.45%
- AC50 [2]: 6.51 µM [falling, single point]

SMILES: CN(Cc1nccs1)C(=O)C1CCC(=O)N(CCc2cccc(F)c2)C1 (stereo not drawn)
- cell number change: 16.8%
- AC50 [1]: 20.6 µM [rising, partial curve, poor fit]

SMILES: COc1cccc(CNC(=O)C2CCCN(S(=O)(=O)c3c(C)[nH]c(=O)[nH]c3=O)C2)c1 (stereo not drawn)
- cell number change: -8.2%
- AC50 [1]: 29.1 µM [falling, single point]

SMILES: CC(C)(C)c1ccc(/C=C/C(=O)Nc2ccncc2)cc1
- cell number change: -38.4%
- AC50 [2]: 32.6 µM [falling, single point]

SMILES: Cc1ccc(S(=O)(=O)/N=C2/NC(=O)/C(=C/c3ccc(Br)o3)S2)cc1
- cell number change: 250%
- AC50 [2]: 20.6 µM [rising, single point]
- AC50 [1]: 16.4 µM [rising, single point]

SMILES: Cc1csc(NC(=O)Cc2nn(C)c(=O)c3ccccc23)n1
- cell number change: -65.3%
- AC50 [1]: 1.3 µM [rising, partial curve]

SMILES: CC(=O)c1ccc(NC(=S)NC(=O)Cc2ccc(Cl)cc2)cc1
- cell number change: 58.5%
- AC50 [2]: 14.6 µM [rising, partial curve]

SMILES: Cc1ccc(C(=O)Nc2ncc(Cc3ccc(F)cc3)s2)o1
- cell number change: -25.9%

SMILES: CCCC(=O)Nc1ccc2c(c1)nc(CN1CCCCC1)n2C
- cell number change: 1.32%

SMILES: Cc1ccn2cc(-c3cccc(NC(=O)c4ccccc4)c3)nc2c1
- cell number change: 7.21%
- AC50 [1]: 0.326 µM [rising, full curve]

SMILES: CC(NC(=O)c1ccc(S(=O)(=O)NCc2ccco2)cc1)c1ccc(F)cc1 (stereo not drawn)
- cell number change: -18.5%
- AC50 [1]: 29.1 µM [falling, single point]

SMILES: CC(NS(=O)(=O)c1ccc(Cl)c(Cl)c1)C(=O)OCC(=O)Nc1ccc2c(c1)OCO2 (stereo not drawn)
- cell number change: -41.2%
- AC50 [2]: 29.1 µM [falling, single point]

SMILES: COc1ccc(C(C)=O)cc1COc1cccnc1[N+](=O)[O-]
- cell number change: -7.89%
- AC50 [1]: 0.251 µM [falling, full curve, poor fit]

SMILES: O=C(c1ccccc1)N(C1=NCCCCS1)c1ccccc1
- cell number change: 8.68%
- AC50 [1]: 0.13 µM [rising, partial curve, poor fit]

SMILES: C/C(=N\NC(=O)c1ccccc1F)c1ccc(C#N)cc1
- cell number change: 96%

SMILES: COc1cccc(CNC(=O)CC2C(=O)NCCN2Cc2ccoc2)c1OC (stereo not drawn)
- cell number change: -9.98%
- AC50 [1]: 1.3 µM [falling, full curve]

SMILES: CCOc1ccccc1/C=N/n1c(C2CCCCC2)n[nH]c1=S
- cell number change: 11.1%

SMILES: CCOC(=O)c1ccc(N2C(=O)CC(N(Cc3ccc4c(c3)OCO4)C(=O)Nc3ccccc3)C2=O)cc1 (stereo not drawn)
- cell number change: 25.7%
- AC50 [1]: 0.116 µM [rising, full curve, poor fit]

SMILES: COc1cc(-c2nnc(SCc3cc(=O)oc4cc(C)ccc34)o2)cc(OC)c1OC
- cell number change: -19.7%

SMILES: CCn1ccc(C(=O)NC2=NCCS2)n1
- AC50 [1]: 0.00461 µM [falling, full curve, poor fit]

SMILES: O=C(NC1CCCc2ccccc21)c1ccccn1 (stereo not drawn)
- AC50 [1]: 10.3 µM [rising, partial curve]
